# Results of single-concentration screens

Chains of the proteins cited; added tags and fusions are not shown.
UniProt I6X8D2, whole entry: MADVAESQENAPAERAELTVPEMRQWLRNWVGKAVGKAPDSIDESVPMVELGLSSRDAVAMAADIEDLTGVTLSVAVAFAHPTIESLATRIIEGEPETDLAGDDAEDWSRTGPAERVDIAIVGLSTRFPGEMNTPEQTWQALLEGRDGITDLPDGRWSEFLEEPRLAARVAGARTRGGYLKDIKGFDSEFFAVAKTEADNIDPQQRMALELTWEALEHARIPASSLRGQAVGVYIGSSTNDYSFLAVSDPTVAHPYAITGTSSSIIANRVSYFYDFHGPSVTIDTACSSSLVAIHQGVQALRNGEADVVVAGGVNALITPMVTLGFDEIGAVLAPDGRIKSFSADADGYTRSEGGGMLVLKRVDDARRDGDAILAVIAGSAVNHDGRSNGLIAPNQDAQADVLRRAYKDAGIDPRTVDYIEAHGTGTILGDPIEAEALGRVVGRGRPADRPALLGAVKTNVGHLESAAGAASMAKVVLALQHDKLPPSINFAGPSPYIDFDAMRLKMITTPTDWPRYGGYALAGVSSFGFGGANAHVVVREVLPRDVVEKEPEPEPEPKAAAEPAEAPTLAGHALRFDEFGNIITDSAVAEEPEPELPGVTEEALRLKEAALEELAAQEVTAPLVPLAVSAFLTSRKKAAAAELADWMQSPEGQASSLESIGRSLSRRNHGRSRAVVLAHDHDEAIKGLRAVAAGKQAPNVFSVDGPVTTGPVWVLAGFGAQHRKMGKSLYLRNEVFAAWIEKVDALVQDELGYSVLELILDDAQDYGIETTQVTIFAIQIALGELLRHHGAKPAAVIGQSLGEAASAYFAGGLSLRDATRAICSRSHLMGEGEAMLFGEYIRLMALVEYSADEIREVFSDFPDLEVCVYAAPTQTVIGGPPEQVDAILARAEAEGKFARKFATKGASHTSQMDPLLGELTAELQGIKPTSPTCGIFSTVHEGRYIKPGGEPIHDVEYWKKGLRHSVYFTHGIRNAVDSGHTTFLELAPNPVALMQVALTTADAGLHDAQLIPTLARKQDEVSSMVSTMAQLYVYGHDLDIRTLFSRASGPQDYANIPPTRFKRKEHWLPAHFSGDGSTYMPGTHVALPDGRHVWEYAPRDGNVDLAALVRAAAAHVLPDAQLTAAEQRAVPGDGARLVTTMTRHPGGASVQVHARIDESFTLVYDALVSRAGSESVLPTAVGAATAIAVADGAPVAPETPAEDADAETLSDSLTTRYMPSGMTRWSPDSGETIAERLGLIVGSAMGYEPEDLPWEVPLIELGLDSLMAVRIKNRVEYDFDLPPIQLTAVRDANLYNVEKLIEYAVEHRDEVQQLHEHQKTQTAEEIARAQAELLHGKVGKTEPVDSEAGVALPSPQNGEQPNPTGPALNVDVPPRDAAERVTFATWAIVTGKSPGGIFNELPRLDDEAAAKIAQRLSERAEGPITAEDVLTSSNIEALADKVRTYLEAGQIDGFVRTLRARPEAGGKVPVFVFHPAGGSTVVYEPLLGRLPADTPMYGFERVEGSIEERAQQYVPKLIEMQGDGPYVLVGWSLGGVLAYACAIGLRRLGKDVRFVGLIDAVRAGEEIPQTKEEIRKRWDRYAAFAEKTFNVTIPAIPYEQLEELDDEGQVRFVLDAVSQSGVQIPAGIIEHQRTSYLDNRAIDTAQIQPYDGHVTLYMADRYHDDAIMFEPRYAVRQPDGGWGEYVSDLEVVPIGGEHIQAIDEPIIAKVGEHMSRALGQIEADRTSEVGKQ

Values are the deposited “Percent Effect”, in %.
The controls that fix the scale are not given in the record; negative values are as filed.
This is an unselected part of the compounds tested.

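Enzyme assay of the thioesterase domain of polyketide synthase 13; the read-out is not stated. Target: Polyketide synthase Pks13, Mycobacterium tuberculosis (UniProt I6X8D2). Compounds at 30 µM. Higher reads as stronger inhibition (inferred from which compounds were picked for retests). Size under these conditions: about 67,000 compounds, about 300 of them at 50% or above in at least one test.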

* O=C(CN1CCCC1Cn1cncn1)NCCC1=CCCCC1 (stereo not drawn) : -20.58%
* O=C(N[C@H]1CCCC[C@@H]1O)c1ccc2nc(-c3ccccc3)[nH]c2c1 : 2.625%
* COc1c(CNCCNC(=O)c2ccc(C)cc2)c(C)nn1C : -15.24%
* Cc1cncnc1C1CCN(C(=O)CN(C)C)CC1 : 1.685%
* CC(C(=O)NCC1CCN(c2ccncc2)CC1)S(C)(=O)=O (stereo not drawn) : -8.134%
* O=C(CN1CCC[C@H]1C(=O)O)NCCOc1cccc(Cl)c1 : -9.103%
* O=C(NCCOc1ccc(Cl)cc1)N1CCS(=O)(=O)CC1 : -8.059%
* CCOC(=O)C1CCN(C(=O)c2cc(F)ccc2-n2cnnn2)CC1 : -2.339%
* Cc1ccc(OC2(C(=O)O)CCN(C(=O)c3ccsc3)CC2)cn1 : -7.143%
* CCn1cnnc1CCNC(=O)C(C)(C)c1cccc(Cl)c1 : -8.716%
* CC(=O)NCC1CCCN(Cc2nc(Cc3ccccc3F)no2)C1 (stereo not drawn) : -16.83%
* Cc1nonc1CNC(=O)C(C)Oc1ccccc1F (stereo not drawn) : -1.405%
* CCC(CO)N(Cc1ccncc1)Cc1c[nH]nc1-c1ccc(F)cc1 (stereo not drawn) : -9.861%
* O=C(Cn1cccn1)N1CCC(Oc2cnccn2)CC1 : -22.92%
* O=C1OCCN1CCOc1nc(-c2ccccc2Cl)no1 : -5.187%
* O=C1CO[C@H]2CN(S(=O)(=O)c3ccccc3)C[C@H]2N1c1ccccc1 : -29.14%
* CCC1(C(=O)O)CCCN(C(=O)c2ccc(O)c(Cl)c2)C1 (stereo not drawn) : -23.71%
* COc1ccc(-c2n[nH]cc2CN(C)Cc2nccn2C)c(F)c1 : -21.47%
* COCCN(Cc1cnn(C)c1)CC1CCOC1 (stereo not drawn) : -21.88%
* CCC(C(=O)NCC1CCN(c2cnn(C)c(=O)c2)CC1)n1cccn1 (stereo not drawn) : -9.469%
* Cc1nc(Oc2ccccc2F)sc1C(=O)O : -4.424%
* Cc1cnn(CC(=O)Nc2cc(-n3nnnc3C3CC3)ccc2F)c1 : -10.8%
* CC1(c2[nH]ncc2C(N)=O)CCN(S(=O)(=O)c2ccccc2)CC1 : 6.088%
* CS(=O)(=O)N1CC[C@]2(O)CCN(CCCC(=O)c3ccccc3)C[C@@H]2C1 : -1.018%
* CN(C)Cc1cc(C2CCCCN2S(=O)(=O)c2cccc(Cl)c2)nn1C (stereo not drawn) : 1.911%
* c1cnn(CC2CN(CCc3ccncc3)CCO2)c1 (stereo not drawn) : -10.1%
* COc1cc(C)ccc1OCCC(=O)N1CCC(N2CC=CC2)C1 (stereo not drawn) : -18.15%
* NCC1Cc2cc(Cl)cc(-c3cncc(C(=O)N4CCCCC4)n3)c2O1 (stereo not drawn) : -20.38%
* O=C1Nc2ccccc2C12CCN(Cc1nccs1)CC2 : -63.15%
* Cc1nc(Nc2ccccn2)cc(C2CCCN2C2CCOCC2)n1 (stereo not drawn) : -27.61%
* CCc1cnc(NCCS(=O)(=O)CC(C)C)nc1 : -27.36%
* CN(c1ccc(OCc2cnc(Cl)s2)cc1)S(C)(=O)=O : -46.02%
* O=C(c1cn(-c2ccccc2)nn1)N1CCCC(n2cccn2)C1 (stereo not drawn) : -11.57%
* O=C(NC[C@H]1OC[C@@H](NC2CCOCC2)[C@@H]1O)Nc1ccccc1 : 1.788%
* CC(C)(O)CCc1cccc(C(=O)NCCC2=CSC3=NCCCN23)c1 : -11.94%
* Cc1cnc(N2CCC[C@@H]3CN(S(C)(=O)=O)C[C@@H]32)nc1 : -27.01%
* O=C1NC2(CCc3ccccc31)CCN(Cc1cccnc1)C2 (stereo not drawn) : 4.026%

Measurements from “University of Dundee, Small-Polar-MMV Screening Library” (2021), ChEMBL document CHEMBL3988442.